Data as given in PubChem BioAssay AID1259405 (NCATS, 2018)
Shown is a random part of about 50,000 reagents tested. In the full data, about 4,000 (8%) were called active. 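Mouse siRNA library applied to hamster cells; one well for each siRNA.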 The numbers tell different reagents against one gene apart.

Purpose: 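Mouse-designed siRNAs used to find CHO productivity engineering targets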 (primary screen)
Cell system: Chinese hamster CHO-K1 ovary cells with stable secreted eGFP expression
Knock-down reagent: single siRNA against mouse genes, 0.8 pmol siRNA per well (2 µl of 400 nM stock)
Timing: 3 days
Measurement: 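Percent of the per-plate non-targeting control median for intracellular GFP per well by laser scanning cytometry and for cell viability by ATP luminescence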
Direction: GFP, % of control: higher = more GFP per well, higher productivity; viability (ATP), % of control: higher = more viable cells (more ATP)
Rule for the call: 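a knock-down is called active if GFP reaches 120% or more of non-targeting control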

Itgb2l #1 → GFP, % of control: 80.6; viability (ATP), % of control: 82.9; outcome: inactive
Itgb2l #2 → GFP, % of control: 64.3; viability (ATP), % of control: 58.4; outcome: inactive
Itgb2l #3 → GFP, % of control: 116; viability (ATP), % of control: 77.4; outcome: inactive
Or8b43 #1 → GFP, % of control: 86.6; viability (ATP), % of control: 68; outcome: inactive
Or8b43 #2 → GFP, % of control: 81.7; viability (ATP), % of control: 73; outcome: inactive
Or8b43 #3 → GFP, % of control: 72.3; viability (ATP), % of control: 131; outcome: inactive
Gtf2a2 #1 → GFP, % of control: 66.3; viability (ATP), % of control: 64.1; outcome: inactive
Gtf2a2 #2 → GFP, % of control: 86.8; viability (ATP), % of control: 50.9; outcome: inactive
Gtf2a2 #3 → GFP, % of control: 71.3; viability (ATP), % of control: 75.9; outcome: inactive
Sp110 #1 → GFP, % of control: 83.1; viability (ATP), % of control: 88.7; outcome: inactive
Sp110 #2 → GFP, % of control: 85.1; viability (ATP), % of control: 55.7; outcome: inactive
Sp110 #3 → GFP, % of control: 138; viability (ATP), % of control: 93.5; outcome: active
Acrv1 #1 → GFP, % of control: 96.3; viability (ATP), % of control: 89.7; outcome: inactive
Acrv1 #2 → GFP, % of control: 78; viability (ATP), % of control: 52.4; outcome: inactive
Acrv1 #3 → GFP, % of control: 80.4; viability (ATP), % of control: 82.6; outcome: inactive
Gzmg #1 → GFP, % of control: 129; viability (ATP), % of control: 120; outcome: active
Gzmg #2 → GFP, % of control: 133; viability (ATP), % of control: 110; outcome: active
Gzmg #3 → GFP, % of control: 59.7; viability (ATP), % of control: 68.8; outcome: inactive
Zfp54 #1 → GFP, % of control: 37.5; viability (ATP), % of control: 56.4; outcome: inactive
Zfp54 #2 → GFP, % of control: 73.6; viability (ATP), % of control: 71.1; outcome: inactive
Zfp54 #3 → GFP, % of control: 83.1; viability (ATP), % of control: 67.2; outcome: inactive
Slc25a38 #1 → GFP, % of control: 102; viability (ATP), % of control: 125; outcome: inactive
Slc25a38 #2 → GFP, % of control: 90.7; viability (ATP), % of control: 69.3; outcome: inactive
Slc25a38 #3 → GFP, % of control: 74.9; viability (ATP), % of control: 98.2; outcome: inactive
AI987944 #1 → GFP, % of control: 71.8; viability (ATP), % of control: 54.9; outcome: inactive
AI987944 #2 → GFP, % of control: 55; viability (ATP), % of control: 62.1; outcome: inactive
AI987944 #3 → GFP, % of control: 86.2; viability (ATP), % of control: 96; outcome: inactive
6330549D23Rik #1 → GFP, % of control: 41.8; viability (ATP), % of control: 95.6; outcome: inactive
6330549D23Rik #2 → GFP, % of control: 94.5; viability (ATP), % of control: 82.2; outcome: inactive
6330549D23Rik #3 → GFP, % of control: 106; viability (ATP), % of control: 80.7; outcome: inactive
Sigirr #1 → GFP, % of control: 63.8; viability (ATP), % of control: 48.4; outcome: inactive
Sigirr #2 → GFP, % of control: 121; viability (ATP), % of control: 75.3; outcome: active
Sigirr #3 → GFP, % of control: 112; viability (ATP), % of control: 88.4; outcome: inactive
Tead3 #1 → GFP, % of control: 51.6; viability (ATP), % of control: 55.5; outcome: inactive
Tead3 #2 → GFP, % of control: 79.8; viability (ATP), % of control: 80.6; outcome: inactive
Tead3 #3 → GFP, % of control: 92.1; viability (ATP), % of control: 76.5; outcome: inactive
Rap1gds1 #1 → GFP, % of control: 94.9; viability (ATP), % of control: 87; outcome: inactive
Rap1gds1 #2 → GFP, % of control: 80.9; viability (ATP), % of control: 74.9; outcome: inactive
Rap1gds1 #3 → GFP, % of control: 57.5; viability (ATP), % of control: 58.1; outcome: inactive
Otub1 #1 → GFP, % of control: 78.3; viability (ATP), % of control: 87.9; outcome: inactive
Otub1 #2 → GFP, % of control: 100; viability (ATP), % of control: 74.4; outcome: inactive
